The effect of the compound repeats well; differences between the knockouts mostly do not.
Test system: SKBR3
Assay: relative cell number vs DMSO control (72 h) (% of DMSO); higher = less growth inhibition (more cells)
Method: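 QMAP-Seq: a pool of 5 breast cancer cell lines (ZR-75-1, SKBR3, HCC-38, MDA-MB-231, BT-20), each carrying 12 doxycycline-inducible Cas9 sgRNA perturbations (11 knockouts plus non-targeting sgNT), was treated with compounds for 72 h at four 10-fold doses (10 nM-10 uM or 1 nM-1 uM range). Barcodes were amplified and sequenced, and cell number was interpolated from 293T spike-in standard curves. The result is expressed as % of the median of DMSO wells. Two biological replicates.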

Cc1onc(-c2ccccc2)c1-c1ccc(S(N)(=O)=O)cc1 [Valdecoxib]
Settings | relative cell number
sgRNA knockout: sgATF3, 10 nM | 98.8
sgRNA knockout: sgATF3, 100 nM | 99.9
sgRNA knockout: sgATF3, 1000 nM | 128
sgRNA knockout: sgATF3, 10000 nM | 108
sgRNA knockout: sgATF4, 10 nM | 93.5
sgRNA knockout: sgATF4, 100 nM | 98.7
sgRNA knockout: sgATF4, 1000 nM | 92.2
sgRNA knockout: sgATF4, 10000 nM | 109
sgRNA knockout: sgATF6, 10 nM | 105
sgRNA knockout: sgATF6, 100 nM | 104
sgRNA knockout: sgATF6, 1000 nM | 110
sgRNA knockout: sgATF6, 10000 nM | 101
sgRNA knockout: sgATG7, 10 nM | 88.2
sgRNA knockout: sgATG7, 100 nM | 111
sgRNA knockout: sgATG7, 1000 nM | 100
sgRNA knockout: sgATG7, 10000 nM | 116
sgRNA knockout: sgERN1, 10 nM | 91.1
sgRNA knockout: sgERN1, 100 nM | 79.9
sgRNA knockout: sgERN1, 1000 nM | 106
sgRNA knockout: sgERN1, 10000 nM | 116
sgRNA knockout: sgHSF1, 10 nM | 103.9
sgRNA knockout: sgHSF1, 100 nM | 95.2
sgRNA knockout: sgHSF1, 1000 nM | 103
sgRNA knockout: sgHSF1, 10000 nM | 111
sgRNA knockout: sgHSF2, 10 nM | 98.5
sgRNA knockout: sgHSF2, 100 nM | 85.7
sgRNA knockout: sgHSF2, 1000 nM | 92.6
sgRNA knockout: sgHSF2, 10000 nM | 104
sgRNA knockout: sgKEAP1, 10 nM | 78.5
sgRNA knockout: sgKEAP1, 100 nM | 113
sgRNA knockout: sgKEAP1, 1000 nM | 105
sgRNA knockout: sgKEAP1, 10000 nM | 125
sgRNA knockout: sgNFE2L2, 10 nM | 104
sgRNA knockout: sgNFE2L2, 100 nM | 107
sgRNA knockout: sgNFE2L2, 1000 nM | 102
sgRNA knockout: sgNFE2L2, 10000 nM | 116
sgRNA knockout: sgSLC35F2, 10 nM | 87.1
sgRNA knockout: sgSLC35F2, 100 nM | 112
sgRNA knockout: sgSLC35F2, 1000 nM | 86.6
sgRNA knockout: sgSLC35F2, 10000 nM | 116
sgRNA knockout: sgXBP1, 10 nM | 92.9
sgRNA knockout: sgXBP1, 100 nM | 91.7
sgRNA knockout: sgXBP1, 1000 nM | 120
sgRNA knockout: sgXBP1, 10000 nM | 97.5

CN1C(=O)C(Cc2c[nH]c3ccccc23)NC1=S (configuration not stated) [Necrostatin1]
Settings | relative cell number
sgRNA knockout: sgATF3, 10 nM | 90.8
sgRNA knockout: sgATF3, 100 nM | 85.2
sgRNA knockout: sgATF3, 1000 nM | 79.3
sgRNA knockout: sgATF3, 10000 nM | 75.8
sgRNA knockout: sgATF4, 10 nM | 91.45
sgRNA knockout: sgATF4, 100 nM | 75.2
sgRNA knockout: sgATF4, 1000 nM | 82.4
sgRNA knockout: sgATF4, 10000 nM | 77.7
sgRNA knockout: sgATF6, 10 nM | 96.8
sgRNA knockout: sgATF6, 100 nM | 86.2
sgRNA knockout: sgATF6, 1000 nM | 68.3
sgRNA knockout: sgATF6, 10000 nM | 85.5
sgRNA knockout: sgATG7, 10 nM | 92.6
sgRNA knockout: sgATG7, 100 nM | 73.1
sgRNA knockout: sgATG7, 1000 nM | 66
sgRNA knockout: sgATG7, 10000 nM | 76.9
sgRNA knockout: sgERN1, 10 nM | 88.4
sgRNA knockout: sgERN1, 100 nM | 68.9
sgRNA knockout: sgERN1, 1000 nM | 56.7
sgRNA knockout: sgERN1, 10000 nM | 78.1
sgRNA knockout: sgHSF1, 10 nM | 94
sgRNA knockout: sgHSF1, 100 nM | 98.2
sgRNA knockout: sgHSF1, 1000 nM | 79.7
sgRNA knockout: sgHSF1, 10000 nM | 90.1
sgRNA knockout: sgHSF2, 10 nM | 90.8
sgRNA knockout: sgHSF2, 100 nM | 81.3
sgRNA knockout: sgHSF2, 1000 nM | 80.4
sgRNA knockout: sgHSF2, 10000 nM | 77.5
sgRNA knockout: sgKEAP1, 10 nM | 85
sgRNA knockout: sgKEAP1, 100 nM | 75.4
sgRNA knockout: sgKEAP1, 1000 nM | 76
sgRNA knockout: sgKEAP1, 10000 nM | 83.4
sgRNA knockout: sgNFE2L2, 10 nM | 103
sgRNA knockout: sgNFE2L2, 100 nM | 77.5
sgRNA knockout: sgNFE2L2, 1000 nM | 71.2
sgRNA knockout: sgNFE2L2, 10000 nM | 74.3
sgRNA knockout: sgSLC35F2, 10 nM | 78.1
sgRNA knockout: sgSLC35F2, 100 nM | 68.8
sgRNA knockout: sgSLC35F2, 1000 nM | 64.5
sgRNA knockout: sgSLC35F2, 10000 nM | 58.8
sgRNA knockout: sgXBP1, 10 nM | 85.1
sgRNA knockout: sgXBP1, 100 nM | 94.5
sgRNA knockout: sgXBP1, 1000 nM | 75.3
sgRNA knockout: sgXBP1, 10000 nM | 69.4

N#Cc1ccc(COC[C@H]2O[C@@H](n3c(NCc4ccc(Cl)c(Cl)c4)nc4c(N)ncnc43)[C@H](O)[C@@H]2O)cc1
Settings | relative cell number
sgRNA knockout: sgATF3, 10 nM | 110
sgRNA knockout: sgATF3, 100 nM | 109
sgRNA knockout: sgATF3, 1000 nM | 104
sgRNA knockout: sgATF3, 10000 nM | 57.4
sgRNA knockout: sgATF4, 10 nM | 89
sgRNA knockout: sgATF4, 100 nM | 103
sgRNA knockout: sgATF4, 1000 nM | 105
sgRNA knockout: sgATF4, 10000 nM | 37.2
sgRNA knockout: sgATF6, 10 nM | 99.9
sgRNA knockout: sgATF6, 100 nM | 92.9
sgRNA knockout: sgATF6, 1000 nM | 86.9
sgRNA knockout: sgATF6, 10000 nM | 45
sgRNA knockout: sgATG7, 10 nM | 118
sgRNA knockout: sgATG7, 100 nM | 97.4
sgRNA knockout: sgATG7, 1000 nM | 104
sgRNA knockout: sgATG7, 10000 nM | 53
sgRNA knockout: sgERN1, 10 nM | 99.9
sgRNA knockout: sgERN1, 100 nM | 103
sgRNA knockout: sgERN1, 1000 nM | 103
sgRNA knockout: sgERN1, 10000 nM | 48.91
sgRNA knockout: sgHSF1, 10 nM | 95.9
sgRNA knockout: sgHSF1, 100 nM | 103
sgRNA knockout: sgHSF1, 1000 nM | 121
sgRNA knockout: sgHSF1, 10000 nM | 43.9
sgRNA knockout: sgHSF2, 10 nM | 96
sgRNA knockout: sgHSF2, 100 nM | 109
sgRNA knockout: sgHSF2, 1000 nM | 97.2
sgRNA knockout: sgHSF2, 10000 nM | 45
sgRNA knockout: sgKEAP1, 10 nM | 89.8
sgRNA knockout: sgKEAP1, 100 nM | 111
sgRNA knockout: sgKEAP1, 1000 nM | 103
sgRNA knockout: sgKEAP1, 10000 nM | 47.6
sgRNA knockout: sgNFE2L2, 10 nM | 105
sgRNA knockout: sgNFE2L2, 100 nM | 113
sgRNA knockout: sgNFE2L2, 1000 nM | 105
sgRNA knockout: sgNFE2L2, 10000 nM | 40.9
sgRNA knockout: sgSLC35F2, 10 nM | 99.59
sgRNA knockout: sgSLC35F2, 100 nM | 96.8
sgRNA knockout: sgSLC35F2, 1000 nM | 96.7
sgRNA knockout: sgSLC35F2, 10000 nM | 50.4
sgRNA knockout: sgXBP1, 10 nM | 107
sgRNA knockout: sgXBP1, 100 nM | 117
sgRNA knockout: sgXBP1, 1000 nM | 84.5
sgRNA knockout: sgXBP1, 10000 nM | 40.2

From the supplement of paper PMC7661543
